# How the values were obtained:
# primary astrocytes [1] = test: Extracellular lactate quantification; type: cell-based; conditions: Mus musculus, Astrocyte, 1.5 h; Prestwick hits, 0-100 μM, 90 min
# Description: Secretion of L-lactate was determined in the extracellular medium of 96-well plated astrocytes after 90 min stimulation (at 37° C., in 5% CO2/95% air conditions) with the drug of interest. The stimulation medium was composed of D5030 medium (completed with D-glucose 5 mM and 44 mM sodium bicarbonate) for 90 min in concentrations ranging from 0 to 100 μM.
# Briefly, 200 μl of a Glycine (Sigma)-Semicarbazide (Acros) 0.2M pH 10 buffer containing 3 mM NAD (Roche) and LDH 14 U/ml (Roche) was added to each well of a 96-well plate containing 30 μl aliquots complemented with 20 μl fresh complete D5030 medium. Samples were incubated at 37° C. for 1 h. After samples cooled down at room temperature, the fluorescence intensity (340 nm excitation/450 nm emission) that represents the amount of NADH produced was measured, and lactate concentration values were determined from a standard curve of L-lactate.
# Levels of lactate secreted by astrocytes were measured in the extracellular medium at 90 min after stimulation with 20 hits (molecules) from the Prestwick library (10 μM each), as shown in FIG. 1. n=6-10; Ctrl pos. is CCCP (2 uM). Statistical analysis consisted in ANOVA followed by Fisher LSD post-hoc test for pair-wise comparisons.
# Levels of lactate secreted by astrocytes were measured in the extracellular medium at 90 min after stimulation with hits (molecules) from the CDC54K library. […]
# primary astrocytes [2] = test: MTT viability assay; type: cell-based; conditions: Mus musculus, Astrocyte; Prestwick hits, 0-200 uM, 24 h
# Description: For cell toxicity determination, astrocytes in 96-well plates were stimulated 24 h (37° C. 5% CO2/95% air) with a gradient ranging from 0.1 to 200 μM of tested compounds. After stimulation, 5 mg/ml thiazol blue tetrazolium bromide (MTT, Sigma-Aldrich) in warm D5030 complete medium was added to each well, and cells were incubated for 4 h at 37° C. (5% CO2). The medium was then removed by aspiration, and the reaction was stopped by the addition of 50 μl DMSO per well.
# The amount of reduced MTT (formazan) solubilized in DMSO was then determined spectrophotometrically using absorbance at 570 nm (Safire 2; Tecan).
# MTT cellular viability assay was performed on astrocytes exposed to Preswtick Hits (concentrations ranging from 0 uM to 200 uM).
# MTT cellular viability assay was performed on astrocytes exposed to CDC54K Hits (concentrations ranging from 0 uM to 200 uM).
compound,measurement,setting,value
Clc1ccc2c(c1)CCc1cccnc1C2=C1CCNCC1 [Desloratadine],EC50,primary astrocytes [1],2100 nM
same,IC50,primary astrocytes [2],11 µM
